Test results as given in the supplement of paper PMC12823440, “Inhibitors supercharge kinase turnover through native proteolytic circuits” (Nature, 2025).
Where a name gives a salt, the structure may show the parent alone. The list shows a part of the results. Hit calls seldom repeat between salt and free forms of one compound.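 Kinases, fused to nanoluciferase, were expressed in K562 cells; luminescence was measured every 4 h from 2 to 18 h as percent of control (DMSO = 100%, positive control = 0%). A time point is decreased if signal falls significantly (2 sigma). Hits were called by the authors by a rule that is not shown; the count of time points alone does not decide it.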

Sequences of proteins named here, by UniProt entry; tags and fusion partners are left off. A change or cut given only in a name is not applied to a line headed by its entry.
UniProt P50613: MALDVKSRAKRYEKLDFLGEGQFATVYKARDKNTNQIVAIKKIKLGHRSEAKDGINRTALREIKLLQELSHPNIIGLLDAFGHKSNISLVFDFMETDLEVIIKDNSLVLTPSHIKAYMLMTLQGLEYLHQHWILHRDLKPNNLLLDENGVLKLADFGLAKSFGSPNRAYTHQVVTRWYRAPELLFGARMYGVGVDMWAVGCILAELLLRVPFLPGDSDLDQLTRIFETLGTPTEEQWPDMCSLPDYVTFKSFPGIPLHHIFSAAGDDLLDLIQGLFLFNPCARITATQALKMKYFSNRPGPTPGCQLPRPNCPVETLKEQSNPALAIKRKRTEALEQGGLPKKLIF
UniProt P50750, whole entry: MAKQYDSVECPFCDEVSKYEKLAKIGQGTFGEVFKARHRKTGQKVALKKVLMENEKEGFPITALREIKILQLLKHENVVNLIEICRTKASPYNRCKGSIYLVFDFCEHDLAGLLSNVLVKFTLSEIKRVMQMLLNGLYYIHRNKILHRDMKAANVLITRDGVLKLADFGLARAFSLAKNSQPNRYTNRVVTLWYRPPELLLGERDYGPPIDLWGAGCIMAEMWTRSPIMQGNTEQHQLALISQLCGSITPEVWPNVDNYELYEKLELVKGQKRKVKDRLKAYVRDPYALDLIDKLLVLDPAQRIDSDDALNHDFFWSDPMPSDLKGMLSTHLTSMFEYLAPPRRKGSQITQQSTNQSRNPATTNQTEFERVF
UniProt O96017, whole entry: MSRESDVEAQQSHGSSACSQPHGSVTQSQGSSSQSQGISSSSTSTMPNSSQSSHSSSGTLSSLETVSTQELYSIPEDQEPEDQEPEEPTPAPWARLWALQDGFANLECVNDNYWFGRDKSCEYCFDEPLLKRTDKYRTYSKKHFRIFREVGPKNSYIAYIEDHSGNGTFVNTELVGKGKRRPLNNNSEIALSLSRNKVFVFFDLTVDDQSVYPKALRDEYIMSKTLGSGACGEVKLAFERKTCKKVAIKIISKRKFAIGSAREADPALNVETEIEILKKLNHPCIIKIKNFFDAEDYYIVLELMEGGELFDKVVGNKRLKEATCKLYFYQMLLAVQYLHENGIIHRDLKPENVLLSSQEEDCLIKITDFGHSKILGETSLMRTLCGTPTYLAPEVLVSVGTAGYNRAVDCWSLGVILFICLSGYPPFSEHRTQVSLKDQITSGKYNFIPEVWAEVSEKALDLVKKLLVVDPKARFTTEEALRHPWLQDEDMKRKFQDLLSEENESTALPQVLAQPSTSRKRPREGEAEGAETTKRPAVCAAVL
UniProt P07333, whole entry: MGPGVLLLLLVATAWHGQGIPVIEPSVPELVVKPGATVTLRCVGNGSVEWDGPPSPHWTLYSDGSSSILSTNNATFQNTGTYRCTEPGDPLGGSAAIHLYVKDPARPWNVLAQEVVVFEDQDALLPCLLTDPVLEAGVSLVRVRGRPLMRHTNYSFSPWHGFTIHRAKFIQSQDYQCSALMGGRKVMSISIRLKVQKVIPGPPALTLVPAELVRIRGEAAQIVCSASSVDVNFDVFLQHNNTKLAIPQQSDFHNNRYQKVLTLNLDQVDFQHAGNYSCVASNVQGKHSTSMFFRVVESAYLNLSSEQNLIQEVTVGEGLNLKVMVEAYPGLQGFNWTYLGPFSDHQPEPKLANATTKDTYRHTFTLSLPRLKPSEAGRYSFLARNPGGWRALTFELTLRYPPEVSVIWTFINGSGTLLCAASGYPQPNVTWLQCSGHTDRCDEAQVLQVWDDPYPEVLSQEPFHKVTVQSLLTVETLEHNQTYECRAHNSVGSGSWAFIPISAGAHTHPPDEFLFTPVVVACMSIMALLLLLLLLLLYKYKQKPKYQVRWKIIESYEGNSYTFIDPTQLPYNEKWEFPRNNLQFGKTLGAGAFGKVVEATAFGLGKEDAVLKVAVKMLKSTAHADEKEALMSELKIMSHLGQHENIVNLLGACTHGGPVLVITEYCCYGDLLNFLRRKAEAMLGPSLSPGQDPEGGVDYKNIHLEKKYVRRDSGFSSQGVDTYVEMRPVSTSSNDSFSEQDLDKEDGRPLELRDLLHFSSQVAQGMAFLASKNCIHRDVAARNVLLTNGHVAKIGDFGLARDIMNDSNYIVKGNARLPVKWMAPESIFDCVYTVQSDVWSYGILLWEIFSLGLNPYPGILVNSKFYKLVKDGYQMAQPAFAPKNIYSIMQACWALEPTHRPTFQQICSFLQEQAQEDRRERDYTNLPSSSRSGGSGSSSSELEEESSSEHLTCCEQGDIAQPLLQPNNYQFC
UniProt P41240: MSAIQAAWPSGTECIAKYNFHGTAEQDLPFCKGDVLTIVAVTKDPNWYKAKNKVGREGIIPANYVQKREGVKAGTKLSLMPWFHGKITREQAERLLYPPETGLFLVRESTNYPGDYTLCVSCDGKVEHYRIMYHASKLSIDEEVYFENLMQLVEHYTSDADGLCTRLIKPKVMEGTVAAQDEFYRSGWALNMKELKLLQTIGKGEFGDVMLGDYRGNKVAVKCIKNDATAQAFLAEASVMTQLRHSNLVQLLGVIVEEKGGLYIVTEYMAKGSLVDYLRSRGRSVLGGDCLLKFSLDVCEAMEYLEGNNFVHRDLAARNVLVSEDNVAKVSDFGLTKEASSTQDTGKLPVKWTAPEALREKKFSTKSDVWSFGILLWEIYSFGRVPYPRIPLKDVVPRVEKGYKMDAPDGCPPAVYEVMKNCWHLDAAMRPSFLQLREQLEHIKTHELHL
UniProt Q08345: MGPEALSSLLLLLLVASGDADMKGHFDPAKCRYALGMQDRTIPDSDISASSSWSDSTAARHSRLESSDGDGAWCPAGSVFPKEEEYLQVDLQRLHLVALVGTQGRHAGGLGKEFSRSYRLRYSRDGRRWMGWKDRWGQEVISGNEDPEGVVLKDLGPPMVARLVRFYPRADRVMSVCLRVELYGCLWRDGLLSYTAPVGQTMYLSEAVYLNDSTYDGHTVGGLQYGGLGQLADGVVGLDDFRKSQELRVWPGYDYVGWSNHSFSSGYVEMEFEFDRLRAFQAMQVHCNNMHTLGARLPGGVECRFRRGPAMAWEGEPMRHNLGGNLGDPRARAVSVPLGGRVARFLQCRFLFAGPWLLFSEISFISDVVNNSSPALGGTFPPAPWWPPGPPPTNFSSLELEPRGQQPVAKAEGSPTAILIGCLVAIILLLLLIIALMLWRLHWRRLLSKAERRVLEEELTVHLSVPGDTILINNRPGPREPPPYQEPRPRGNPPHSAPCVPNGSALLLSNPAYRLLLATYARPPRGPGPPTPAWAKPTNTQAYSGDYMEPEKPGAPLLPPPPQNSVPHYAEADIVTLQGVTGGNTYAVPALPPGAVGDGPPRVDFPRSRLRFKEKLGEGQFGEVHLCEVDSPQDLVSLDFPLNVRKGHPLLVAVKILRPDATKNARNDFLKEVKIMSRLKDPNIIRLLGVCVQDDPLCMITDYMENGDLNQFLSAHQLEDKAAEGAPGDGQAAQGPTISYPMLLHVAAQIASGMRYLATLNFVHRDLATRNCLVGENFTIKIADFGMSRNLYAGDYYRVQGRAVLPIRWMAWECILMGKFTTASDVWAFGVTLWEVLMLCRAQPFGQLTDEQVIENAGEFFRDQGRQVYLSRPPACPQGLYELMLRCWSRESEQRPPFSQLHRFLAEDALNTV
UniProt Q9Y463, whole entry, looked up: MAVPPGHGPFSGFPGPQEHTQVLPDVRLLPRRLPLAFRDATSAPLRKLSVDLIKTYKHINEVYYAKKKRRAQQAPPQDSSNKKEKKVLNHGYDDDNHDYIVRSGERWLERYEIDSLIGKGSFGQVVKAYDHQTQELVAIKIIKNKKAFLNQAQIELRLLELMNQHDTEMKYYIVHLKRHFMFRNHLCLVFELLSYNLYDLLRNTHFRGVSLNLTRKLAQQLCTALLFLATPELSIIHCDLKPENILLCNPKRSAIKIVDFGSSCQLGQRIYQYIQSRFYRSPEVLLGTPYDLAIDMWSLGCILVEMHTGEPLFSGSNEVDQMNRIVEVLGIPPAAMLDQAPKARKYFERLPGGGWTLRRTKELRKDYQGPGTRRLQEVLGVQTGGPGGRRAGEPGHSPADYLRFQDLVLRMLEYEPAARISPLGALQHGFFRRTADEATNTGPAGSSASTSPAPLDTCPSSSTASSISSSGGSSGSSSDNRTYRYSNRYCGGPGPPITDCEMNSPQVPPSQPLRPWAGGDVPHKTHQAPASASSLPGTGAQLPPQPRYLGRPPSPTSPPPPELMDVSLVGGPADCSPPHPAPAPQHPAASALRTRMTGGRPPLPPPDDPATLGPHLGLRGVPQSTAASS
UniProt P29317, whole entry: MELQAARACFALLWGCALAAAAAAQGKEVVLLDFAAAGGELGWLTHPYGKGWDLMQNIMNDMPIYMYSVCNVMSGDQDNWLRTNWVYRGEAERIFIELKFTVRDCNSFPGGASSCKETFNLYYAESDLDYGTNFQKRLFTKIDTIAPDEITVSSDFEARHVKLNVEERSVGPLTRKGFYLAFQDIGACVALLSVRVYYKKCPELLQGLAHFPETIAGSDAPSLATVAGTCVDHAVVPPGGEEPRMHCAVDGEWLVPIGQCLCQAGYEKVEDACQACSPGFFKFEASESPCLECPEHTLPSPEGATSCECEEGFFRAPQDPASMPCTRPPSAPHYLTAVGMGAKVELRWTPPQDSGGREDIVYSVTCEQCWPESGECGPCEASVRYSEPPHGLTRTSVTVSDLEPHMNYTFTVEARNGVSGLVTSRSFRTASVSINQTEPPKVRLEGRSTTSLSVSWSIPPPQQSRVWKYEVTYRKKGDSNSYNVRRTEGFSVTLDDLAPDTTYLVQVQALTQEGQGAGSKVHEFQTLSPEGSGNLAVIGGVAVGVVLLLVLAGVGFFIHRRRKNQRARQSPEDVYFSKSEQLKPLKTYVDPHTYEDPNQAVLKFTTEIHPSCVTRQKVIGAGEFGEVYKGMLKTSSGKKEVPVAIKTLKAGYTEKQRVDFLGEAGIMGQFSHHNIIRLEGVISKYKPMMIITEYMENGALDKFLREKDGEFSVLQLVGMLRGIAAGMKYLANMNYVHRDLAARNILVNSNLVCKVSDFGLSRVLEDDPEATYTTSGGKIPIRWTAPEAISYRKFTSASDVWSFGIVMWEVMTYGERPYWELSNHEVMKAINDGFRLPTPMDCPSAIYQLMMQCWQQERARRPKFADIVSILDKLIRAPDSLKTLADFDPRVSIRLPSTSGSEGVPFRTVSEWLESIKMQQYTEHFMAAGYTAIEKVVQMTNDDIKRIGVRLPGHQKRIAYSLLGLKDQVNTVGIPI
UniProt Q15303, whole entry R711C: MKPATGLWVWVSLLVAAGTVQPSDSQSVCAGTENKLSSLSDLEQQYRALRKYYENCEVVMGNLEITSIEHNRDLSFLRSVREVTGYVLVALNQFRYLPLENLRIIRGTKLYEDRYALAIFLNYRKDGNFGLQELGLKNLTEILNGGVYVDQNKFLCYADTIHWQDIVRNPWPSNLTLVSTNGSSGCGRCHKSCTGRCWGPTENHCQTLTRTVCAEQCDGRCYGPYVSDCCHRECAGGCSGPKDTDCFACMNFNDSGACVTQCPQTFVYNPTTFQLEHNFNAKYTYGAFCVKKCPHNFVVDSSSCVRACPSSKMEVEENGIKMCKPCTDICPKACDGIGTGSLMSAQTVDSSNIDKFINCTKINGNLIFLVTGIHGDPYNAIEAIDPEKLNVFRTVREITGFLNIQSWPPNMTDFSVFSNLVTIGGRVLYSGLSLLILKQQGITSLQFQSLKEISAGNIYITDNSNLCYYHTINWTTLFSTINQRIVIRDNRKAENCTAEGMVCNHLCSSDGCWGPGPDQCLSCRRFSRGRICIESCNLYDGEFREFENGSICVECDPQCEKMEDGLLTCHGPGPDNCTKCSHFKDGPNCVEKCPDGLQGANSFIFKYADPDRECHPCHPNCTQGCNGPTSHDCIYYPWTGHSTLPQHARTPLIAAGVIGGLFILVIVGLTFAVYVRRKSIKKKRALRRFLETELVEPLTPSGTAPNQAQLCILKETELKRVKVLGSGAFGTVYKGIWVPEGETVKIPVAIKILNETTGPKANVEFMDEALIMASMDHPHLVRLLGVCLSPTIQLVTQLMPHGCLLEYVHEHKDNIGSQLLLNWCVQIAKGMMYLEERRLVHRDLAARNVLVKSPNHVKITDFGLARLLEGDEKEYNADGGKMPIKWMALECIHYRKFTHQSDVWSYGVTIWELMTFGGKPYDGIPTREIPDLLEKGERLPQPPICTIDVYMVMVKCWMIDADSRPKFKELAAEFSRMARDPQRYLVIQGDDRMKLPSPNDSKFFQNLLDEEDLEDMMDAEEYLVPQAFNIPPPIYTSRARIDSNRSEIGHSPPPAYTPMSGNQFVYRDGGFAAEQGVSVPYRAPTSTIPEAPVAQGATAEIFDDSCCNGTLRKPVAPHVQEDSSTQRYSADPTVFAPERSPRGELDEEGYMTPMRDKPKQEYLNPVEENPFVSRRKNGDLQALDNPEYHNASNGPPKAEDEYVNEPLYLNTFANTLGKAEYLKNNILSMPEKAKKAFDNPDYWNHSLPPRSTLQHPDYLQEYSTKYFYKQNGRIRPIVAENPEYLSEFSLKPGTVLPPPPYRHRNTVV

How the values were obtained:
Assay in all cases: kinase-Nluc reporter destabilization hit call (1 = scored as downregulated) (binary); higher = compound decreases kinase abundance
Conditions in all cases: K562; 2-18 h
CDK7 = CDK7 (UniProt P50613)
CDK9 = CDK9 (UniProt P50750)
CHEK2 = CHEK2 (UniProt O96017)
CSF1R = CSF1R (UniProt P07333)
CSK = CSK (UniProt P41240)
CSNK1A1 = CSNK1A1 (UniProt P48729)
CSNK1D = CSNK1D (UniProt P48730)
DDR1 = DDR1 (UniProt Q08345)
DYRK1B = DYRK1B (UniProt Q9Y463)
DYRK2 = DYRK2 (UniProt Q92630)
EGFR = EGFR (UniProt P00533)
EGFR_G719S = EGFR_G719S (UniProt P00533)
EGFR_G719S_T790M = EGFR_G719S_T790M (UniProt P00533)
EGFR_L718V = EGFR_L718V (UniProt P00533)
EGFR_L858R = EGFR_L858R (UniProt P00533)
EGFR_L861Q = EGFR_L861Q (UniProt P00533)
EGFR_T790M = EGFR_T790M (UniProt P00533)
EPHA2 = EPHA2 (UniProt P29317)
ERBB3 = ERBB3 (UniProt P21860)
[1] = target: ERBB4_R711C (clone: ERBB4_mut) (UniProt Q15303)

Measured: kinase-Nluc reporter destabilization hit call

CCS(=O)(=O)Nc1ccc2[nH]c(O)c(C(=Nc3ccc(CN4CCCCC4)cc3)c3ccccc3)c2c1 [Hesperadin] (2.5 µM)
inactive: CDK7 = 0 | CDK9 = 0 | CHEK2 = 0 | CSF1R 0 | CSK 0 | CSNK1A1 = 0 | CSNK1D 0 | DDR1 = 0 | DYRK1B 0 | DYRK2 = 0 | EGFR 0 | EGFR_G719S 0 | EGFR_G719S_T790M 0 | EGFR_L718V 0 | EGFR_L858R 0 | EGFR_L861Q 0 | EGFR_T790M 0 | EPHA2 = 0 | ERBB3 = 0 | [1] 0

COc1ccc(OC)c(C2C(C#N)=C(N)Oc3n[nH]c(-c4ccc5ccccc5c4)c32)c1 (centres undefined) (10 µM)
inactive: CDK7 = 0 | CDK9 = 0 | CHEK2 = 0 | CSF1R 0 | CSK 0 | CSNK1A1 = 0 | CSNK1D 0 | DDR1 = 0 | DYRK1B 0 | DYRK2 = 0 | EGFR 0 | EGFR_G719S 0 | EGFR_G719S_T790M 0 | EGFR_L718V 0 | EGFR_L858R 0 | EGFR_L861Q 0 | EGFR_T790M 0 | EPHA2 = 0 | ERBB3 = 0 | [1] 0

O=C(Nc1ccc(CN2CCOCC2)cc1)c1ccc(-c2cccc(Cl)c2)o1 (10 µM)
inactive: CDK7 = 0 | CDK9 = 0 | CHEK2 = 0 | CSF1R 0 | CSK 0 | CSNK1A1 = 0 | CSNK1D 0 | DDR1 = 0 | DYRK1B 0 | DYRK2 = 0 | EGFR 0 | EGFR_G719S 0 | EGFR_G719S_T790M 0 | EGFR_L718V 0 | EGFR_L858R 0 | EGFR_L861Q 0 | EGFR_T790M 0 | EPHA2 = 0 | ERBB3 = 0 | [1] 0

O=c1cc(CN2CCOCC2)occ1OCCCCCSc1ccnc2cc(C(F)(F)F)ccc12 (10 µM)
inactive: CDK7 = 0 | CDK9 = 0 | CHEK2 = 0 | CSF1R 0 | CSK 0 | CSNK1A1 = 0 | CSNK1D 0 | DDR1 = 0 | DYRK1B 0 | DYRK2 = 0 | EGFR 0 | EGFR_G719S 0 | EGFR_G719S_T790M 0 | EGFR_L718V 0 | EGFR_L858R 0 | EGFR_L861Q 0 | EGFR_T790M 0 | EPHA2 = 0 | ERBB3 = 0 | [1] 0

Nc1ncnc2c1c(-c1ccc(Oc3ccccc3)cc1)nn2C1CCCC1 (2.5 µM)
inactive: CDK7 = 0 | CDK9 = 0 | CHEK2 = 0 | CSF1R 0 | CSK 0 | CSNK1A1 = 0 | CSNK1D 0 | DDR1 = 0 | DYRK1B 0 | DYRK2 = 0 | EGFR 0 | EGFR_G719S 0 | EGFR_G719S_T790M 0 | EGFR_L718V 0 | EGFR_L858R 0 | EGFR_L861Q 0 | EGFR_T790M 0 | EPHA2 = 0 | ERBB3 = 0 | [1] 0

C=CC(=O)Nc1cccc(Nc2nc(Nc3ccc(NC4CN(CCF)C4)cc3OC)ncc2C(F)(F)F)c1 (2.5 µM)
inactive: CDK7 = 0 | CDK9 = 0 | CHEK2 = 0 | CSF1R 0 | CSK 0 | CSNK1A1 = 0 | CSNK1D 0 | DDR1 = 0 | DYRK1B 0 | DYRK2 = 0 | EGFR 0 | EGFR_G719S 0 | EGFR_G719S_T790M 0 | EGFR_L718V 0 | EGFR_L858R 0 | EGFR_L861Q 0 | EGFR_T790M 0 | EPHA2 = 0 | ERBB3 = 0 | [1] 0

O=C1Nc2ccc(C(=O)c3ccco3)cc2C1=Cc1cc(Cl)c(O)c(Cl)c1 (2.5 µM)
inactive: CDK7 = 0 | CDK9 = 0 | CHEK2 = 0 | CSF1R 0 | CSK 0 | CSNK1A1 = 0 | CSNK1D 0 | DDR1 = 0 | DYRK1B 0 | DYRK2 = 0 | EGFR 0 | EGFR_G719S 0 | EGFR_G719S_T790M 0 | EGFR_L718V 0 | EGFR_L858R 0 | EGFR_L861Q 0 | EGFR_T790M 0 | EPHA2 = 0 | ERBB3 = 0 | [1] 0

COc1cc(OC2CCN(C)CC2)ccc1Nc1ncc2c(n1)n(C1CCCC1)c(=O)n2C (10 µM)
inactive: CDK7 = 0 | CDK9 = 0 | CHEK2 = 0 | CSF1R 0 | CSK 0 | CSNK1A1 = 0 | CSNK1D 0 | DDR1 = 0 | DYRK1B 0 | DYRK2 = 0 | EGFR 0 | EGFR_G719S 0 | EGFR_G719S_T790M 0 | EGFR_L718V 0 | EGFR_L858R 0 | EGFR_L861Q 0 | EGFR_T790M 0 | EPHA2 = 0 | ERBB3 = 0 | [1] 0

O=C([O-])c1cc2ccccc2c(Cc2c(O)c(C(=O)[O-])cc3ccccc23)c1O.[Na+].[Na+] [Pamoic acid (disodium)] (10 µM)
inactive: CDK7 = 0 | CDK9 = 0 | CHEK2 = 0 | CSF1R 0 | CSK 0 | CSNK1A1 = 0 | CSNK1D 0 | DDR1 = 0 | DYRK1B 0 | DYRK2 = 0 | EGFR 0 | EGFR_G719S 0 | EGFR_G719S_T790M 0 | EGFR_L718V 0 | EGFR_L858R 0 | EGFR_L861Q 0 | EGFR_T790M 0 | EPHA2 = 0 | ERBB3 = 0 | [1] 0

Random excerpt: 2 entries already listed
O=C([O-])c1cc2ccccc2c(Cc2c(O)c(C(=O)[O-])cc3ccccc23)c1O.[Na+].[Na+] [Pamoic acid (disodium)] (10 µM)
inactive: CDK7 = 0 | CDK9 = 0 | CHEK2 = 0 | CSF1R 0 | CSK 0 | CSNK1A1 = 0 | CSNK1D 0 | DDR1 = 0 | DYRK1B 0 | DYRK2 = 0 | EGFR 0 | EGFR_G719S 0 | EGFR_G719S_T790M 0 | EGFR_L718V 0 | EGFR_L858R 0 | EGFR_L861Q 0 | EGFR_T790M 0 | EPHA2 = 0 | ERBB3 = 0 | [1] 0

COc1cc(OC2CCN(C)CC2)ccc1Nc1ncc2c(n1)n(C1CCCC1)c(=O)n2C (10 µM)
inactive: CDK7 = 0 | CDK9 = 0 | CHEK2 = 0 | CSF1R 0 | CSK 0 | CSNK1A1 = 0 | CSNK1D 0 | DDR1 = 0 | DYRK1B 0 | DYRK2 = 0 | EGFR 0 | EGFR_G719S 0 | EGFR_G719S_T790M 0 | EGFR_L718V 0 | EGFR_L858R 0 | EGFR_L861Q 0 | EGFR_T790M 0 | EPHA2 = 0 | ERBB3 = 0 | [1] 0

Remaining list, next part

COc1cc2c(N3CCN(C(=O)Nc4ccc(OC(C)C)cc4)CC3)ncnc2cc1OCCCN1CCCCC1 [Tandutinib] (10 µM)
inactive: CDK7 = 0 | CDK9 = 0 | CHEK2 = 0 | CSK 0 | CSNK1A1 = 0 | CSNK1D 0 | DDR1 = 0 | DYRK1B 0 | DYRK2 = 0 | EPHA2 = 0 | ERBB3 = 0 | [1] 0

CN1CCN(c2cccc(Nc3nc4c(-c5ccc(S(C)(=O)=O)cc5)cccn4n3)c2)CC1 (10 µM)
inactive: CDK7 = 0 | CDK9 = 0 | CHEK2 = 0 | CSF1R 0 | CSK 0 | CSNK1A1 = 0 | CSNK1D 0 | DDR1 = 0 | DYRK1B 0 | DYRK2 = 0 | EGFR 0 | EGFR_G719S 0 | EGFR_G719S_T790M 0 | EGFR_L718V 0 | EGFR_L858R 0 | EGFR_L861Q 0 | EGFR_T790M 0 | EPHA2 = 0 | ERBB3 = 0 | [1] 0

COc1cc2c(N3CCN(C(=O)Nc4ccc(OC(C)C)cc4)CC3)ncnc2cc1OCCCN1CCCCC1 [Tandutinib (hydrochloride)] (10 µM)
inactive: CDK7 = 0 | CDK9 = 0 | CHEK2 = 0 | CSK 0 | CSNK1A1 = 0 | CSNK1D 0 | DDR1 = 0 | DYRK1B 0 | DYRK2 = 0 | EPHA2 = 0 | ERBB3 = 0 | [1] 0

Cc1ccc(C(=O)Nc2ccc(Oc3cc4cnn(C)c4cc3-c3cn[nH]c3)c(F)c2)c(=O)n1-c1ccc(F)cc1 [Merestinib dihydrochloride] (2.5 µM)
inactive: CDK7 = 0 | CDK9 = 0 | CHEK2 = 0 | CSF1R 0 | CSK 0 | CSNK1A1 = 0 | CSNK1D 0 | DDR1 = 0 | DYRK1B 0 | DYRK2 = 0 | EGFR 0 | EGFR_G719S 0 | EGFR_G719S_T790M 0 | EGFR_L718V 0 | EGFR_L858R 0 | EGFR_L861Q 0 | EGFR_T790M 0 | EPHA2 = 0 | ERBB3 = 0 | [1] 0

N#Cc1c(C2CCNCC2)cc(-c2c(O)cccc2OCC2CC2)nc1N [ACHP (Hydrochloride)] (10 µM)
inactive: CDK7 = 0 | CDK9 = 0 | CHEK2 = 0 | CSF1R 0 | CSK 0 | CSNK1A1 = 0 | CSNK1D 0 | DDR1 = 0 | DYRK1B 0 | DYRK2 = 0 | EGFR 0 | EGFR_G719S 0 | EGFR_G719S_T790M 0 | EGFR_L718V 0 | EGFR_L858R 0 | EGFR_L861Q 0 | EGFR_T790M 0 | EPHA2 = 0 | ERBB3 = 0 | [1] 0
